From PMC10541190 (The Journal of Clinical Investigation, 2023)

Tested on: SARS-CoV-2 (USA-WA1/2020)
Assay: microbe, parasite or virus in culture
Format: cell-based
Details: Severe acute respiratory syndrome coronavirus 2, Vero, 24 h, read-out: SARS-CoV-2 EC50

**Q.** How did the EC50 turn out when `O=C(CCCN1CCC2(CC1)C(=O)NCN2c1ccccc1)c1ccc(F)cc1` [Spiperone] was run?
**A.** 4.3 µM
